# “Also recorded” adds a separate entry of the source. Where no end group is shown, it is not given here.
# Legend:
# [1] = Filtering abilities of the system of FIG. 13 (membrane shear-thinning unit + 0.2 μm filter); conditions: for Output through filter (0.2μ pore size) at 100 psi / Output through shear-thinning unit (5 μm pore size) + filter (0.2 μm pore size) at 100 psi: membranes 25 mm
# [2] = Filtration through 0.2 Nalgene syringe filter with 25 mm cellulose acetate membranes; conditions: 25 mm cellulose acetate membrane
# [3] = 1.0% solution at 50 psi, 25 mm diameter
compound,measurement,setting,value
"O [Water, reference compound]",Output through filter: 0.2 μm pore size,"[1]; at 25 psi, 25 mm diameter",42 mL/min
same,Output through shear-thinning unit (5 μm pore size) + filter (0.2 μm pore size),"[1]; at 25 psi, 25 mm diameter",33 mL/min
same,Output through shear-thinning unit (20 μm pore size) + filter (0.2 μm pore size),"[1]; at 25 psi, 25 mm diameter",41 mL/min
same,Output through shear-thinning unit (41 μm pore size) + filter (0.2 μm pore size),"[1]; at 25 psi, 25 mm diameter",35 mL/min
Arg-Ala-Asp-Ala-Arg-Ala-Asp-Ala-Arg-Ala-Asp-Ala-Arg-Ala-Asp-Ala [RADA16],Output through shear-thinning unit (5 μm pore size) + filter (0.2 μm pore size),[1]; [3],1.6 mL/min
same,Output through shear-thinning unit (20 μm pore size) + filter (0.2 μm pore size),[1]; [3],1.7 mL/min
same,Output through shear-thinning unit (41 μm pore size) + filter (0.2 μm pore size),[1]; [3],1.4 mL/min
same,Output through filter (0.2μ pore size) at 100 psi,[1]; 2.5% solution,0 mL/min
same,Output through shear-thinning unit (5 μm pore size) + filter (0.2 μm pore size) at 100 psi,[1]; 2.5% solution,3.8 mL/min
Ile-Glu-Ile-Lys-Ile-Glu-Ile-Lys-Ile-Glu-Ile-Lys-Ile [IEIK13],passage through the filter,[2]; 1.5% solution,could not be passed successfully through the filter
same,passage through the filter,"[2]; 1.5% solution, listed as IEK13",not able to be filtered
same,Output through filter (0.2μ pore size) at 100 psi,[1]; 1.5% solution,0 mL/min
same,Output through shear-thinning unit (5 μm pore size) + filter (0.2 μm pore size) at 100 psi,[1]; 1.5% solution,12.5 mL/min
"KLDLKLDLKLDL [KLD12, self-assembling peptide with repeats of KLDL, tested as solutions of 1 to 2.5%]",passage through the filter,[2]; 1% solution,passed successfully through the filter
same,passage through the filter,[2]; 1.5% solution,passed successfully through the filter
same,passage through the filter,[2]; 2% solution,could not be passed successfully through the filter
same,passage through the filter,[2]; 2.5% solution,could not be passed successfully through the filter; also recorded: not able to be filtered
same,Output through filter (0.2μ pore size) at 100 psi,[1]; 2.5% solution,0 mL/min
same,Output through shear-thinning unit (5 μm pore size) + filter (0.2 μm pore size) at 100 psi,[1]; 2.5% solution,11.4 mL/min

# Reference: patent publication US12115264B2, “Sterilization and filtration of peptide compositions” (3-D Matrix, Ltd., priority 2014, dated 2024)
